{
  "source": "patent US20220119513A1",
  "binders": {"B1": {"name": "felHclbH618x-K4-1 (antibody, V domains shown)", "VH": "QVLLVQSGAEVRKPGASVKIFCKASGYTFITYYMHWLRQAPEQGLEWMGQIFPASGSTNYNEMFEGRLTLTADTSTNTAYMELSSLRSADTAMYYCARGDGNYALDAMDYWGQGALVTVSS", "VL": "AITMTQSPGSLAGSPGQQVTMNCRASESVDSYGNSFMHWYQQKPGQHPKLLIYLASNLESGVPDRFSGSGSGTDFTLTISNLQAEDVASYYCQQNNEDPLTFGAGT"}, "B2": {"name": "felHclbH636x-KD2-2 (antibody, V domains shown)", "VH": "B1 VH with K13R, T28I, E42A, L45F, N77D, M93V, Q113H, A115T, L116I", "VL": "DVVMTQTPLSLPVTPGEPASISCRASESVDSYGNSFMHWYLQKPGQSPRRLIYLASNLESGVPDRFSGSGSGTDFTLRISRVEADDVGVYYCQQNNEDPLTFGAGT"}, "B3": {"name": "felHclbH1-1x-KD2-2 (antibody, V domains shown)", "VH": "B1 VH with K13T, T28I, L37V, A40S, E42A, A115T, L116S", "VL": "B2 VL"}, "B4": {"name": "felHclbH634x-KD2-2 (antibody, V domains shown)", "VH": "B1 VH with A24T, M34V, E42A, L45F, M93V", "VL": "B2 VL"}, "B5": {"name": "felHclbH618s-KD2-2 (antibody, V domains shown)", "VH": "B1 VH with Q50R, N59S, N61A, E62Q, M63K, E65Q", "VL": "B2 VL"}, "B6": {"name": "felHclbH618x-KD2-2 (antibody, V domains shown)", "VH": "B1 VH", "VL": "B2 VL"}, "B7": {"name": "felHclb_heterochimera-1 (antibody, V domains shown)", "VH": "QVLLVQSGAEVRRPGASVKIFCKASGYIFITYYMHWLRQAPAQGFEWMGSIFPASGSTSYAQKFQGRLTLTADTSTDTAYMELSSLRSADTAVYYCARGDGNYALDAMDYWGHGTIVTVSS", "VL": "DIVMTQTPPSLSVSPRETASISCRASESVDSYGNSFMHWYLQKPGQSPQLLIYLASNLESGVSDRFSGSGSGTDFTLRISRVEANDTGVYYCQQNNEDPLTFGQ"}, "B8": {"name": "felHclb_heterochimera-2 (antibody, V domains shown)", "VH": "B7 VH with R13T, L37V, A40S, F45L, D77N, V93M, H113Q, I116S", "VL": "B7 VL"}, "B9": {"name": "felHclb_heterochimera-4 (antibody, V domains shown)", "VH": "B1 VH with K13T, T28I, L37V, A40S, E42A, A115T, L116S", "VL": "B7 VL"}, "B10": {"name": "felHclb_heterochimera-5 (antibody, V domains shown)", "VH": "B1 VH with Q50R, N59S, N61A, E62Q, M63K, E65Q", "VL": "B7 VL"}, "B11": {"name": "felHclb_heterochimera-11 (antibody, V domains shown)", "VH": "B7 VH", "VL": "DIVLTQTPASLAVSLGQRATISCRASESVDSYGNSFMHWYQQKSGQPPKLLIYLASNLESGVPARFSGSGSRTDFTLTIDPVEADDAATYYCQQNNEDPLTFGAGTK"}},
  "key": {"TGFβ2 (R&D Systems)": {"target": "TGFβ2 (R&D Systems)", "assay": "SPR"}, "TGFβ1 (R&D Systems)": {"target": "TGFβ1 (R&D Systems)", "assay": "SPR"}},
  "note": "Residue numbers refer to the chain shown, from its start. These are yes or no findings as the source states them, for the method shown.",
  "data": [
    {"binder": "B1", "values": [
      {"measurement": "binding", "setting": "TGFβ2 (R&D Systems)", "value": "no binding"},
      {"measurement": "binding", "setting": "TGFβ1 (R&D Systems)", "value": "no binding"}
    ]},
    {"binder": "B2", "values": [
      {"measurement": "binding", "setting": "TGFβ2 (R&D Systems)", "value": "no binding"},
      {"measurement": "binding", "setting": "TGFβ1 (R&D Systems)", "value": "no binding"}
    ]},
    {"binder": "B3", "values": [
      {"measurement": "binding", "setting": "TGFβ2 (R&D Systems)", "value": "no binding"},
      {"measurement": "binding", "setting": "TGFβ1 (R&D Systems)", "value": "no binding"}
    ]},
    {"binder": "B4", "values": [
      {"measurement": "binding", "setting": "TGFβ2 (R&D Systems)", "value": "no binding"},
      {"measurement": "binding", "setting": "TGFβ1 (R&D Systems)", "value": "no binding"}
    ]},
    {"binder": "B5", "values": [
      {"measurement": "binding", "setting": "TGFβ2 (R&D Systems)", "value": "no binding"},
      {"measurement": "binding", "setting": "TGFβ1 (R&D Systems)", "value": "no binding"}
    ]},
    {"binder": "B6", "values": [
      {"measurement": "binding", "setting": "TGFβ2 (R&D Systems)", "value": "no binding"},
      {"measurement": "binding", "setting": "TGFβ1 (R&D Systems)", "value": "no binding"}
    ]},
    {"binder": "B7", "values": [
      {"measurement": "binding", "setting": "TGFβ2 (R&D Systems)", "value": "no binding"},
      {"measurement": "binding", "setting": "TGFβ1 (R&D Systems)", "value": "no binding"}
    ]},
    {"binder": "B8", "values": [
      {"measurement": "binding", "setting": "TGFβ2 (R&D Systems)", "value": "no binding"},
      {"measurement": "binding", "setting": "TGFβ1 (R&D Systems)", "value": "no binding"}
    ]},
    {"binder": "B9", "values": [
      {"measurement": "binding", "setting": "TGFβ2 (R&D Systems)", "value": "no binding"},
      {"measurement": "binding", "setting": "TGFβ1 (R&D Systems)", "value": "no binding"}
    ]},
    {"binder": "B10", "values": [
      {"measurement": "binding", "setting": "TGFβ2 (R&D Systems)", "value": "no binding"},
      {"measurement": "binding", "setting": "TGFβ1 (R&D Systems)", "value": "no binding"}
    ]},
    {"binder": "B11", "values": [
      {"measurement": "binding", "setting": "TGFβ2 (R&D Systems)", "value": "no binding"},
      {"measurement": "binding", "setting": "TGFβ1 (R&D Systems)", "value": "no binding"}
    ]}
  ]
}
